PubChem BioAssay AID686938, Drosophila RNAi Screening Center – 2013
Assay: 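Knock-downs reducing store-operated calcium influx in Drosophila cells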 (primary screen). Cells: Drosophila S2R+ cells. Reagent: long dsRNA against Drosophila genes, about 0.25 µg dsRNA per well, roughly 10,000 cells. Duration: 5 days of knock-down before the calcium assay. Challenge: thapsigargin (SERCA pump blocker) to empty calcium stores; entry signal taken 4 min after adding it. Read-out: 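Per-well fluo-4 fluorescence in two replicates, unnormalised, measured in resting cells and 4 min after store depletion by the SERCA blocker thapsigargin; ratio of the two present in few wells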. Direction: calcium entry signal: higher = stronger calcium signal after store depletion; entry to resting ratio: higher = more calcium entry relative to resting level; resting calcium signal: higher = higher resting calcium signal. Hit rule: 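Called when the plate z-score of the entry-to-rest ratio, mean of duplicates, falls below −3; wells with low overall dye signal (Fmax z below −2) or more than five off-targets excluded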. Meaning of the calls: active = strongly reduced calcium entry; inactive = no strong reduction.
In all, the deposit lists about 23,000 reagents; this is an unselected part of those with a known target gene and a result. In the full data, 75 (0.33%) got an active call. 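Raw plate signals without normalisation; calls rest on plate z-scores that were not deposited; ratio present for only 364 wells.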 The record does not give: the dose of the treatment.

| Target gene | dsRNA | calcium entry signal, replicate 1 (fluorescence units) | calcium entry signal, replicate 2 (fluorescence units) | entry to resting ratio | resting calcium signal, replicate 1 (fluorescence units) | resting calcium signal, replicate 2 (fluorescence units) | call |
| --- | --- | --- | --- | --- | --- | --- | --- |
| CG7879 | DRSC08600 | 2.95e7 | 2.76e7 | – | 1.44e7 | 1.37e7 | inactive |
| CG11095 | DRSC19375 | 2.26e7 | 2.93e7 | – | 1.08e7 | 1.37e7 | inactive |
| AP-1gamma (Adaptor Protein complex 1, gamma subunit) | DRSC18433 | 1.50e7 | 3.59e7 | – | 8.32e6 | 1.73e7 | inactive |
| CG1671 | DRSC06617 | 3.26e7 | 2.36e7 | – | 1.61e7 | 1.36e7 | inactive |
| CG17637 | DRSC11740 | 2.85e7 | 4.39e7 | – | 1.48e7 | 1.92e7 | inactive |
| Antp (Antennapedia) | DRSC12490 | 4.71e7 | 5.46e7 | – | 2.12e7 | 2.56e7 | inactive |
| Antp (Antennapedia) | DRSC23104 | 4.52e7 | 3.73e7 | – | 2.20e7 | 1.59e7 | inactive |
| Scp2 (Sarcoplasmic calcium-binding protein 2) | DRSC13166 | 3.26e7 | 2.75e7 | – | 1.89e7 | 1.38e7 | inactive |
| Scp2 (Sarcoplasmic calcium-binding protein 2) | DRSC16854 | 2.26e7 | 3.02e7 | – | 1.13e7 | 4.98e7 | inactive |
| smp-30 (Senescence marker protein-30) | DRSC17059 | 3.21e7 | 5.70e7 | – | 1.63e7 | 7.40e7 | inactive |
| CG13041 | DRSC09922 | 3.66e7 | 4.36e7 | – | 1.77e7 | 2.00e7 | inactive |
| TotF (Turandot F) | DRSC02305 | 2.29e7 | 3.96e7 | – | 1.13e7 | 1.62e7 | inactive |
| chrb (charybde) | DRSC11335 | 4.36e7 | 4.34e7 | – | 2.74e7 | 2.01e7 | inactive |
| CG3630 | DRSC18499 | 2.57e7 | 3.47e7 | – | 1.32e7 | 1.72e7 | inactive |
| ast (asteroid) | DRSC00803 | 4.29e7 | – | – | 2.25e7 | – | inactive |
| ng1 (new glue 1) | DRSC18802 | 3.91e7 | 5.83e7 | 2 | 1.96e7 | 2.43e7 | inactive |
| CG4476 | DRSC10424 | 3.26e7 | 3.57e7 | – | 1.76e7 | 1.57e7 | inactive |
| GstT4 (Glutathione S transferase T4) | DRSC19757 | 4.14e7 | 3.94e7 | – | 1.85e7 | 1.80e7 | inactive |
| ppk11 (pickpocket 11) | DRSC02737 | 3.26e7 | 4.52e7 | – | 1.59e7 | 1.88e7 | inactive |
| ATPsynC (ATP synthase, subunit C) | DRSC15236 | 2.06e7 | 2.60e7 | – | 1.32e7 | 1.41e7 | inactive |
| SMSr (Sphingomyelin synthase related) | DRSC10998 | 5.65e7 | 3.53e7 | – | 3.60e7 | 1.64e7 | inactive |
| SMSr (Sphingomyelin synthase related) | DRSC10999 | 2.68e7 | 4.57e7 | – | 1.27e7 | 1.95e7 | inactive |
| CG13075 | DRSC09958 | 4.92e7 | 6.60e7 | – | 2.46e7 | 2.61e7 | inactive |
| CG5555 | DRSC15834 | 2.85e7 | 2.30e7 | – | 1.34e7 | 9.90e6 | inactive |

2 entries already listed, arranged by “resting calcium signal, replicate 1 (fluorescence units)”, low to high.
| Target gene | dsRNA | calcium entry signal, replicate 1 (fluorescence units) | calcium entry signal, replicate 2 (fluorescence units) | entry to resting ratio | resting calcium signal, replicate 1 (fluorescence units) | resting calcium signal, replicate 2 (fluorescence units) | call |
| --- | --- | --- | --- | --- | --- | --- | --- |
| smp-30 (Senescence marker protein-30) | DRSC17059 | 3.21e7 | 5.70e7 | – | 1.63e7 | 7.40e7 | inactive |
| CG13041 | DRSC09922 | 3.66e7 | 4.36e7 | – | 1.77e7 | 2.00e7 | inactive |
